Data from paper PMC7351999.
These are yes or no findings as the source states them, for the method shown. Some entries that bind do so weakly or less than the wild type.

Protein sequences, listed by entry. Tags and fused reporters are not part of them. Lines headed by an entry give the natural chain unless they say otherwise; changes in a name come on top.
UniProt Q92608: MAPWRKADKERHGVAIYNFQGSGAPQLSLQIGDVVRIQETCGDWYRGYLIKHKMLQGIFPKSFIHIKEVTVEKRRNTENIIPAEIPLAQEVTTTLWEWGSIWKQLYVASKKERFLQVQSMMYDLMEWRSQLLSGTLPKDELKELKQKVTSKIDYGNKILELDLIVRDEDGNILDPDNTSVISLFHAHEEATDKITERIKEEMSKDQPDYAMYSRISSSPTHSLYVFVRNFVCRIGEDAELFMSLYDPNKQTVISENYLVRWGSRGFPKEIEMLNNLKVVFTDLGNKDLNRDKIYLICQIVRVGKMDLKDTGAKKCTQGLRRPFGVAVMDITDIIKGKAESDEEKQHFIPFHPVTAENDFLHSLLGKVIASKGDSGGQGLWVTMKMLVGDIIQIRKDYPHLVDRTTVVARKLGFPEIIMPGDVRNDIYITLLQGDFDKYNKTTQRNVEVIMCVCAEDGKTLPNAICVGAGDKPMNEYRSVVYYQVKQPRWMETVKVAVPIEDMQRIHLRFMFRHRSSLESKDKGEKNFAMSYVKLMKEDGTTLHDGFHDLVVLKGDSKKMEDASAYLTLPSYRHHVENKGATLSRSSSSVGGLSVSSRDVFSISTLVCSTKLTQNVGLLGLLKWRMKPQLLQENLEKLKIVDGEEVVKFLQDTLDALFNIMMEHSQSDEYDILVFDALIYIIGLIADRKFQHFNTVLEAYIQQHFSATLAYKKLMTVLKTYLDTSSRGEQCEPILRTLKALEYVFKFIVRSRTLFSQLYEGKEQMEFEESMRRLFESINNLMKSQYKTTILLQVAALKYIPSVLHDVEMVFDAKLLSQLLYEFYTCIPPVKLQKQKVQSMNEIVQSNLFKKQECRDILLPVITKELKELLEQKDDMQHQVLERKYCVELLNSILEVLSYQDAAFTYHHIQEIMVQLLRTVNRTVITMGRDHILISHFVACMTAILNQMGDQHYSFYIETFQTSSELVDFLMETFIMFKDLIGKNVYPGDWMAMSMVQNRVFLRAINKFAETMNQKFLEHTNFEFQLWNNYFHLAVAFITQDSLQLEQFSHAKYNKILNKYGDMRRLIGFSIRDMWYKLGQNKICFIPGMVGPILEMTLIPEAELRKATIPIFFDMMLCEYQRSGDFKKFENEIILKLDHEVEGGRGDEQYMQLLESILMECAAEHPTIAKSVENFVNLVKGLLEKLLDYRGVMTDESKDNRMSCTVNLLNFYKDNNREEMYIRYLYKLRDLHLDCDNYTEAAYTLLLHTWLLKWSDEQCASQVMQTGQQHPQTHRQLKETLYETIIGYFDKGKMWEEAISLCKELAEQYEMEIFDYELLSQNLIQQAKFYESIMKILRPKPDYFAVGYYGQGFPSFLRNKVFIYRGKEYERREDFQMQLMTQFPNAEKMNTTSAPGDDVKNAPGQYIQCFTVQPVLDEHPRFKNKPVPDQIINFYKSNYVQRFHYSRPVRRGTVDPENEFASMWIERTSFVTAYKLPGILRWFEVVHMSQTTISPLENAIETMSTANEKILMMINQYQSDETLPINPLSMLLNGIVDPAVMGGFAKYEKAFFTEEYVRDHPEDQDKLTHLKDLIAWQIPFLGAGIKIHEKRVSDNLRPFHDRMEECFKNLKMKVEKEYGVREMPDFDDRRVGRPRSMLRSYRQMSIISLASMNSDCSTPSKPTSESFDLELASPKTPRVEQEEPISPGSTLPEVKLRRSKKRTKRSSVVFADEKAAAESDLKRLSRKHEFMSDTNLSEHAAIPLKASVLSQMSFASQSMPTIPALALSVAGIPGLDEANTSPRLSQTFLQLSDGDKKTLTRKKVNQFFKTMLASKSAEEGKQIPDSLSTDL
UniProt Q92556: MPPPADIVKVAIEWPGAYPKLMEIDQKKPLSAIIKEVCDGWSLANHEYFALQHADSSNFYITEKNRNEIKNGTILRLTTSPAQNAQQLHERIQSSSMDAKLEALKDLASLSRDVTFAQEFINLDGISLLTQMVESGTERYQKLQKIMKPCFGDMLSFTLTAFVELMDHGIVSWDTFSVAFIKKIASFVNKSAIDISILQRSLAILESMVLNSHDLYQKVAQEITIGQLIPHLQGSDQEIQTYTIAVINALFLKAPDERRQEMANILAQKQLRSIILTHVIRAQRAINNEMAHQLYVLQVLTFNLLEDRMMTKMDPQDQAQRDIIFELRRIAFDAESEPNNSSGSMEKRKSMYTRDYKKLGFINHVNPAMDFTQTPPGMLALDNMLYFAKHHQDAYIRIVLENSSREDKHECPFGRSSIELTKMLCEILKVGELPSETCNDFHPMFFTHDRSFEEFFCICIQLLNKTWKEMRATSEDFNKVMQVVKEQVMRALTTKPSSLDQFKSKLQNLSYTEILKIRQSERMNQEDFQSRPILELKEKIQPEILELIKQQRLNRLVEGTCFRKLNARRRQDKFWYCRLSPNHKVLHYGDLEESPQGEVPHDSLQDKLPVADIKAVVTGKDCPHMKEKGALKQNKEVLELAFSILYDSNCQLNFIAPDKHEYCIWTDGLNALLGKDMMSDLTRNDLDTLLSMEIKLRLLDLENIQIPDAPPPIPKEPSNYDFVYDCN

Columns and labels:
[1] = biological target: DOCK2^(Y1315A/L1322A/Y1329A), dimerization mutant (human) (UniProt Q92608); test: SEC; co-expressed and co-purified DOCK2–ELMO1 complex, wild type and dimer mutant; gel filtration buffer 50 mM Tris HCl (pH 8.0), 200 mM NaCl, 2 mM DTT; Superose 6 / Superdex 200 5/150GL; both purified
[2] = biological target: human DOCK2 (dedicator of cytokinesis 2) (human) (UniProt Q92608); test: cryo-EM structure; DOCK2−ELMO1−RAC1 ternary complex, cross-linked with glutaraldehyde, single particle cryo-EM; both purified
[3] = biological target: human DOCK2 (dedicator of cytokinesis 2) (human) (UniProt Q92608); test: cryo-EM structure; DOCK2−ELMO1 binary complex without RAC1, cross-linked with glutaraldehyde, single particle cryo-EM; both purified
[4] = biological target: human DOCK2 (dedicator of cytokinesis 2) (human) (UniProt Q92608); test: SEC; co-expressed and co-purified DOCK2–ELMO1 complex, wild type and dimer mutant; gel filtration buffer 50 mM Tris HCl (pH 8.0), 200 mM NaCl, 2 mM DTT; Superose 6 / Superdex 200 5/150GL; both purified

| binding [1] | binding [2] | binding [3] | binding [4] | Substance |
| --- | --- | --- | --- | --- |
| no binding |  |  |  | DOCK2^(Y1315A/L1322A/Y1329A), dimerization mutant (from UniProt Q92608 1-1830) |
| binds | binds | binds | binds | human ELMO1 (engulfment and cell motility protein 1) (from UniProt Q92556 1-727) |
